Laboratory results published in patent US20120238762A1, “AZOLE DERIVATIVES AND METHODS FOR PRODUCING THE SAME, INTERMEDIATE COMPOUNDS FOR THE DERIVATIVES AND METHODS FOR PRODUCING THE SAME, AND AGRO-HORTICULTURAL AGENTS AND INDUSTRIAL MATERIAL PROTECTING AGENTS CONTAINING THE DERIVATIVES” (KUREHA CORPORATION, priority 2009, published 2012).
Some results were stated once for a whole list of compounds, not compound by compound.

Experiments:
Puccinia recondita = experiment: Efficacy test against wheat brown rust; format: in vivo; conditions: wheat plant, wettable formulation 500 mg/L sprayed at 1,000 L/ha, nine to fourteen days after inoculation
Botrytis cinerea = experiment: Efficacy test against cucumber gray mold; conditions: cucumber plant, wettable formulation 500 mg/L sprayed at 1,000 L/ha, four days after inoculation

Compound | Protective value, wheat brown rust (Puccinia recondita) | Protective value, cucumber gray mold (Botrytis cinerea)
OC(CCC1CC1(Cl)Cl)(Cn1cncn1)C1(Cl)CC1 (single isomer, unassigned) [I-607b, 2-(1-chlorocyclopropyl)-4-(2,2-dichlorocyclopropyl)-1-(1H-1,2,4-triazol-1-yl)butan-2-ol] | ≥ 80% | ≥ 80%
OC(CC1CC1(Br)Br)(Cn1cncn1)C1(Cl)CC1 (single isomer, unassigned) [I-210a, 2-(1-chlorocyclopropyl)-1-(2,2-dibromocyclopropyl)-3-(1H-1,2,4-triazol-1-yl)propan-2-ol] | ≥ 80% | ≥ 80%
OC(CC1CC1(Cl)Cl)(CC1CC1(Cl)Cl)Cn1cncn1 (single isomer, unassigned) [I-277b, 1,3-bis(2,2-dichlorocyclopropyl)-2-(1H-1,2,4-triazol-1-ylmethyl)propan-2-ol] | ≥ 80% | 
OC(Cn1cncn1)(C1CC1(Cl)Cl)C1(Cl)CC1 (single isomer, unassigned) [I-2a, 1-(1-chlorocyclopropyl)-1-(2,2-dichlorocyclopropyl)-2-(1H-1,2,4-triazol-1-yl)ethanol] | ≥ 80% | ≥ 80%
OC(CCC1CC1(Cl)Cl)(Cn1cncn1)C1(Cl)CC1 (single isomer, unassigned) [I-607a, 2-(1-chlorocyclopropyl)-4-(2,2-dichlorocyclopropyl)-1-(1H-1,2,4-triazol-1-yl)butan-2-ol] | ≥ 80% | ≥ 80%
OC(CC1CC1(Cl)Cl)(CC1CC1(Cl)Cl)Cn1cncn1 (single isomer, unassigned) [I-277a, 1,3-bis(2,2-dichlorocyclopropyl)-2-(1H-1,2,4-triazol-1-ylmethyl)propan-2-ol] | ≥ 80% | 
